This is an account of results in paper PMC6986443, “T‐495, a novel low cooperative M1 receptor positive allosteric modulator, improves memory deficits associated with cholinergic dysfunction and is characterized by low gastrointestinal side effect risk” (Pharmacology Research & Perspectives, 2020).

In this experiment the test system is CaMKIIα‐tTA/A53T α‐syn dTg mice. In words: Contextual fear conditioning (CFC) test. Format: in vivo, mouse. On the procedure: The CFC test was performed in a clear conditioning chamber (33 cm wide, 25 cm long, and 28 cm high; O’Hara & Co., Ltd.) surrounded by a sound‐attenuating box. The illumination in the chamber was maintained at 100 lux. Conditioned stimulus (CS) and unconditioned stimulus (US) were automatically delivered by a tone generator and a shock generator (O’Hara & Co., Ltd.), respectively. On Day 1 (habituation phase), vehicle was orally administered, and mice were placed in the conditioning chamber. They were allowed to freely explore for 120 seconds and then returned to their home cages. […] Mice were placed in the chamber for 120 seconds before the onset of a tone (CS, 60 dB for 30 s). The last 2 seconds of the CS were paired with a foot shock (US, 0.25 mA), and mice were removed and returned to their home cages 180 seconds after the US. […] Mice were again placed in the same chamber for 180 seconds. Freezing behavior was analyzed using ImageJ FZ4 (O’Hara & Co., Ltd.) during the conditioning and retention phases.

On to `COc1cc2c(cc1OC)C(=O)C(CC1CCN(Cc3ccccc3)CC1)C2` (centres unmarked) [donepezil, reference compound], for which, for the setting “1 mg/kg p.o.”, the “level of freezing behavior during the conditioning phase” value was “did not affect”. The “reduced level of freezing behavior during the retention phase” value (1 mg/kg p.o. 2 h before conditioning and retention) is on record as “significantly reversed”.
